The values below come from publication PMC9458560.

The chains behind the UniProt entries cited, without tags or fusion partners.
UniProt P05429: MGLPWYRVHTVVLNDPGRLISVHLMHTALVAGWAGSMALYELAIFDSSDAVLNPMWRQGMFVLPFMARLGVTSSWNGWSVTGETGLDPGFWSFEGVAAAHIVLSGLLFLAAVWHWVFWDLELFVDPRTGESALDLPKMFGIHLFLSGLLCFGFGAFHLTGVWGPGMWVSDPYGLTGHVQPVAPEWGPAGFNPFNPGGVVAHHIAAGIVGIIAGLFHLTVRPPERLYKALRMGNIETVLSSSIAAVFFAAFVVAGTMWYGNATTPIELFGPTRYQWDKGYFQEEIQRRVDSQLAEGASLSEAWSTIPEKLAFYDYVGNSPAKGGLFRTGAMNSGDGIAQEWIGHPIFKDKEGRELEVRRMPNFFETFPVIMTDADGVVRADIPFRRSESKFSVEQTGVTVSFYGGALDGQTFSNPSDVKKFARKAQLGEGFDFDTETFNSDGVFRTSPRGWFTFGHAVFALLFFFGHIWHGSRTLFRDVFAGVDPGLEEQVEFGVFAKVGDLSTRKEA

Results are given in words; binding and its absence hold for the method and conditions named. In cells and extracts the contact can be indirect. Some entries that bind do so weakly or less than the wild type. Where a sequence is shown, tags or fusion partners need not be part of it.

The target of this test is T1, N-terminally FLAG-tagged Psb34 (Synechocystis sp. PCC 6803) (UniProt P74067).
T1 sequence: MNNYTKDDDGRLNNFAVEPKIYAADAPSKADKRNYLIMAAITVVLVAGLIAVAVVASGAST
Kind of test: co-IP; FLAG-Psb34 pulled down on anti-FLAG M2 affinity gel from β-DDM-solubilised membranes of FLAG-Psb34/∆Psb34 cells exposed to 500 µmol photons m^-2 s^-1 for 2 h; eluate analysed by 2D-CN/SDS-PAGE, SYPRO stain and immunoblot.

In the case of CP43 (from UniProt P09193 1-460), the binding entry is “binds”.

Take CP47 (from UniProt P05429 1-507): the binding result is on record as “binds”.
